A short description of the data set: general procedure: peptide synthesis; CCBT / N-methylmorpholine (Example 1); NEPIS, N-ethoxycarbonyl-2-ethoxy-1,2-dihy. Particulars: late stage modification step.

On to “3-[(S)-1'-phenylethylamino]propylaminobleomycin”, for which the step yield is, setting by setting: (dihydrochloride (copper-containing form)) 92% yield; (dihydrochloride, monosulfate, diacetic acid salt, run 1) 75% yield; (dihydrochloride, monosulfate, diacetic acid salt, run 2) 56% yield; (dihydrochloride, monosulfate, diacetic acid salt, run 3) 47% yield; (dihydrochloride, monosulfate, diacetic acid salt, run 4) 12% yield; (dihydrochloride, monosulfate, diacetic acid salt, run 5) 53% yield. For the same substance, the step yield worked out at 46% yield (dihydrochloride, monosulfate, diacetic acid salt, run 6); 25% yield (dihydrochloride, monosulfate, diacetic acid salt, run 7); 90% yield (dihydrochloride, monosulfate, diacetic acid salt, run 8); 85% yield (dihydrochloride, monosulfate, diacetic acid salt, run 9); 63% yield (dihydrochloride, monosulfate, diacetic acid salt, run 10); 78% yield (dihydrochloride, monosulfate, diacetic acid salt, run 11). For the same substance, the step yield runs as follows: (dihydrochloride, monosulfate, diacetic acid salt, run 12) 73% yield; (dihydrochloride, monosulfate, diacetic acid salt, run 13) 98% yield; (dihydrochloride, monosulfate, diacetic acid salt, run 14) 96% yield; (dihydrochloride, monosulfate, diacetic acid salt, run 15) 82% yield; (dihydrochloride, monosulfate, diacetic acid salt, run 16) 96% yield; (monosulfate (copper-free form)) 95% yield.

Source of the values: patent US4195018A (Nippon Kayaku Kabushiki Kaisha, priority 1977, dated 1980).
